# Measurements: PubChem BioAssay AID493014 (National Center for Advancing Translational Sciences (NCATS), 2011)
# Among all 340,000 compounds or so, about 170 (0.05%) were called active. Inconclusive means that the source gave no clear call. Such entries were picked first, then a sample of the others. Calls come from the whole dose curve; as a rule, active = well fitted inhibition curve with a large enough effect in the signal ratio, with a control signal flat (not every such curve was filed as active); inconclusive = small, poorly fitted or top-dose-only effect, or effect the other way, or a change in a side signal; inactive = flat fitted curve, though single readings scatter; the % refers to the signal ratio. A potency beside an inconclusive call is a rough fit, not a confirmed value.
# Experiment: qHTS Assay to Find Inhibitors of Chronic Active B-Cell Receptor Signaling;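 for activity change, negative = inhibition: plate controls were basal doxycycline-induced cells for no effect and cells given 10 µM MG132 for full effect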
# Conditions: ABC-DLBCL IkBa-CBG/CBR reporter, luminescence ratio (green luciferase fused to IkBa over red control in TMD8 lymphoma cells), 4 h; activity change, negative = inhibition: at 46.1 µM (top of the series) unless noted
# Procedure, shortened: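 Concentration-response series (up to 46 uM) were applied to TMD8 dual-reporter cells for 4 h at 37C with doxycycline. Green/red ratio, after filter-overlap correction, defined %Activity; red signal alone was normalised to basal cells and zero luminescence.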
# Potency is the fitted concentration of half-maximal effect.
SMILES,"activity change, negative = inhibition",Potency
CC(C)(C)c1ccc(NC(=O)CSc2n[nH]c(=O)n2-c2cccnc2)cc1,inconclusive: -6.45%,–
Cc1cccc(NC(=O)CCN2C(=O)C3C4C=CC(C4)C3C2=O)c1 (centres undefined),inconclusive: 12.4%,–
Clc1cccc(-c2nc(NCCCN3CCOCC3)c3ccccc3n2)c1,inconclusive: -13.7%,–
Cc1c(Cl)ccc2c(C(=O)NCCN3CCCCC3)cc(-c3ccccn3)nc12,inactive,–
COc1ccc(-c2cnnn2-c2ccc(NC(=O)c3c(F)cccc3F)cc2)cc1,inconclusive: -5.91%,–
C=C(C)C(=O)N1CC2(CC(c3cccc(NC(=O)COc4ccc(Cl)cc4)c3)=NO2)C[C@@H]1C(N)=O (some centres undefined),inconclusive: -17.5%,–
Cc1cc(=O)n(CC=C(Cl)Cl)c2ccccc12,inconclusive: -0.823%,–
O=C(CNC(=O)c1ccc2c(c1)OCO2)Nc1ncccc1O,–,"inconclusive: 20.6 µM [falling, partial curve]"
CC(=O)c1ccc(Oc2cc(C)nc(-n3nc(C)cc3C)n2)cc1,–,"inconclusive: 23.1 µM [falling, partial curve]"
Cc1nc2c(C(=O)NCc3ccccc3)c[nH]n2c(=O)c1Cl,inconclusive: 11.4%,–
CCN(C[C@H]1N[C@@](C)(C(=O)OC)[C@H]2C(=O)N(Cc3ccccc3)C(=O)[C@@H]12)C(=O)COC,inconclusive: -3.68%,–
CCOCCCN(C(=O)Cn1nnc(-c2ccc(OC)c(OC)c2)n1)C(C(=O)NCC1CCCO1)c1ccc(F)cc1 (centres undefined),inactive,–
CSc1ccc(CNCCCSc2ncccn2)cc1,–,"inconclusive: 31.6 µM [falling, single point]"
CCN1CCN(C(=O)c2ccc3c(Cl)c4c(nc3c2)CCCC4)CC1,inconclusive: -18.9%,–
COC(=O)[C@@]1(C)[C@H]2C(=O)N(Cc3ccccc3)C(=O)[C@H]2[C@H]2CN=C(SCc3ccc(Cl)cc3)N21,inactive,–
O=C(CN1CCC(C(=O)c2ccc(F)cc2)CC1)Nc1ccc(F)cc1,–,"inconclusive: 16.4 µM [falling, partial curve]"
NS(=O)(=O)c1ccc(CNC(=O)CSc2ccccc2)cc1,inconclusive: 2.93%,–
Cc1c(Cl)cccc1NC(=O)Nc1ccc(C(N)=O)cc1,–,"inconclusive: 7.08 µM [falling, partial curve]"
COc1ccccc1NC(=S)NCCc1ccccc1,inconclusive: 5.75%,–
O=S(=O)(c1ccc(S(=O)(=O)N2CCN(Cc3ccccc3)CC2)cc1)N1CCOCC1,inconclusive: -1.88%,–
Cc1ccc(Nc2nc(-c3c(C)nc4ncccn34)cs2)cc1,–,"inconclusive: 17.8 µM [falling, partial curve, poor fit]"
COc1ccc(N(CC(=O)NCCc2ccc(OC)c(OC)c2)S(=O)(=O)c2ccc(OC)c(OC)c2)cc1,inconclusive: 2.72%,–
COc1ccc(CC(=O)N2CCc3ccccc3C2)cc1,inconclusive: 0.317%,–
COc1ccc(F)cc1S(=O)(=O)Nc1cc2c3c(c1)CCN3C(=O)CC2,inconclusive: -0.0074%,–
O=C1CC(SCCc2nc3ccccc3[nH]2)C(=O)N1c1ccc(Cl)cc1 (centres undefined),inconclusive: -19.5%,–
Cc1nc2ccccc2c2oc(C(=O)NCCN3CCN(C)CC3)cc12,inconclusive: -1.09%,–
COc1ccc(OC)c(NC(=O)CSc2ccnc(=O)[nH]2)c1,inconclusive: -0.25%,–

SMILES,"activity change, negative = inhibition",Potency
Cc1ccc(C2CC(c3ccc(NS(C)(=O)=O)cc3)=NN2C(=O)c2ccco2)cc1 (centres undefined),inconclusive: -16.1%,–
COc1ccc(NC(=O)c2c(NCc3ccc(C)o3)sc3c2CCC(C)C3)c(OC)c1 (centres undefined),–,"inconclusive: 22.4 µM [falling, single point]"
COc1cccc(Oc2ccc(C(F)(F)F)cc2NC(=O)c2cccc(F)c2)c1,inconclusive: 4.87%,–
COc1ccc(Cl)cc1S(=O)(=O)N(C)CC(=O)N1CCCC1,–,"inconclusive: 6.31 µM [falling, single point]"
Brc1ccc(Nc2ncnc3[nH]ncc23)cc1,inconclusive: -4.94%,–
COc1ccc(Nc2nc3ccccc3c(=O)s2)c(OC)c1,inactive,–
COCCCn1c(SCc2cccc(C(F)(F)F)c2)nc2cc(OC)c(OC)cc2c1=N,inconclusive: 12.4%,–
CCN(CC)CCN1C(=O)c2ccccc2NC1c1ccc(N(C)C)cc1 (centres undefined),inconclusive: -22.6%,–
CCC(=O)N(CCC1(c2ccccc2OC)CCOC(C(C)C)C1)Cc1ccco1 (centres undefined),inconclusive: 0.942%,–
CCOC(=O)c1c[nH]c2c(Cl)c(Cl)ccc2c1=O,inconclusive: 20.8%,–
CCOC(=O)[C@H]1[C@H]2COc3ccc(Cl)cc3[C@@H]2N2C(=O)CN(Cc3ccco3)C(=O)[C@@]12C,inactive,–
COC(=O)COc1ccc2oc(=O)cc(-c3cc4ccccc4o3)c2c1,inactive,–
CCn1cc(C(=O)Nc2ccccc2)c(=O)c2ccc(C)nc21,inconclusive: 1.83%,–
O=C(c1ccc2c(c1)OCO2)C1CCCN(Cc2cn[nH]c2-c2cccc(F)c2)C1 (centres undefined),–,"inconclusive: 10 µM [falling, partial curve]"
Cc1cccc(NC(=O)C2CCN(S(=O)(=O)c3cccs3)CC2)c1,inactive,–
O=C(c1cc(-c2ccccc2)on1)N1CCN(c2ccccc2)CC1,–,"inconclusive: 15.8 µM [falling, partial curve]"
COC(=O)C1=C(C)OC(N)=C(C#N)C1c1c(C)nn(-c2ccccc2)c1Cl (centres undefined),–,"inconclusive: 16.4 µM [falling, single point]"
Cc1cccc(NC(=O)CNCC(=O)Nc2cccc(C)c2C)c1C,inactive,–
O=C(CCC1CCCCC1)Nc1c2c(nn1-c1ccc(F)cc1)CS(=O)C2 (centres undefined),–,"inconclusive: 0.00651 µM [falling, full curve, poor fit]"
c1ccc(Oc2ccc(-n3cnnn3)cc2)cc1,inconclusive: -0.465%,–
C[C@H](CO)N1C[C@H](C)[C@@H](CN(C)C(=O)Nc2ccccc2)Oc2c(NC(=O)Nc3ccc(C(F)(F)F)cc3)cccc2C1=O,inconclusive: -11.2%,–
CC(=O)NC1=NN(C(C)=O)C(C)(c2ccco2)S1 (centres undefined),–,"inconclusive: 35.5 µM [falling, single point]"
Cc1ccc(NC(=S)NC2CCSc3ccccc32)cc1 (centres undefined),inconclusive: -5.98%,–
Cc1cc(-c2ccc(S(=O)(=O)N(C)c3ccc(C)c(C)c3)s2)on1,–,"inconclusive: 10 µM [falling, partial curve]"
CNCCCOc1ccc(C(C)(C)c2ccccc2)cc1,–,"inconclusive: 29.1 µM [rising, single point]"
CCCCCOc1ccc(CSC2=NCCN2)cc1[N+](=O)[O-],–,"inconclusive: 23.1 µM [falling, single point]"
COc1ccccc1/C=C1\SC(N2CCC(C)CC2)=NC1=O,inconclusive: -12.7%,–

# 4 entries out of the list, sorted by molar mass, largest number first:
SMILES,"activity change, negative = inhibition",Potency
C=C(C)C(=O)N1CC2(CC(c3cccc(NC(=O)COc4ccc(Cl)cc4)c3)=NO2)C[C@@H]1C(N)=O (some centres undefined),inconclusive: -17.5%,–
COC(=O)C1=C(C)OC(N)=C(C#N)C1c1c(C)nn(-c2ccccc2)c1Cl (centres undefined),–,"inconclusive: 16.4 µM [falling, single point]"
Clc1cccc(-c2nc(NCCCN3CCOCC3)c3ccccc3n2)c1,inconclusive: -13.7%,–
c1ccc(Oc2ccc(-n3cnnn3)cc2)cc1,inconclusive: -0.465%,–

# (next part)

SMILES,"activity change, negative = inhibition",Potency
COC(CN1C(=O)C(=O)/C(=C(/O)c2ccccc2)C1c1ccccn1)OC (centres undefined),inconclusive: 17.6%,–
COc1ccc(C(=O)N2CCNC(=O)C2)cc1S(=O)(=O)Nc1ccc(Br)cc1,inconclusive: 4.14%,–
CCCC1=C(C(=O)OCC)C(c2ccco2)C(C#N)=C(N)O1 (centres undefined),inactive,–
CC(=O)N1CCn2c3c(c(=O)c4cc(C)ccc42)CCC31 (centres undefined),inconclusive: 0.676%,–
Cc1ccc(-n2nc3c(c2NC(=O)c2ccc4c(c2)OCO4)CS(=O)(=O)C3)cc1C,inactive,–
CCc1nn(CC(=O)NCCCN2CCc3ccccc3C2)c(=O)c2cc3sccc3n12,inactive,–
COc1ccc(NC(=S)c2ccc(N(C)C)cc2)cc1,inconclusive: 10.4%,–
COC(=O)c1ccc(NC(=O)CN2C(=O)C3C4C=CC(C4)C3C2=O)cc1 (centres undefined),inactive,–
COCCNC(=O)CSc1ccc(Cl)cc1,inconclusive: 4.01%,–
CCOC(=O)c1cc2oc(C(c3nnnn3C3CCCCC3)N3CCOCC3)cc2[nH]1 (centres undefined),–,"inconclusive: 32.6 µM [falling, single point]"
Cn1c(=O)c2c(nc(N/N=C/c3ccco3)n2C)n(C)c1=O,inconclusive: 0.761%,–
CCN1CCN(c2oc(-c3ccco3)nc2C#N)CC1,inconclusive: 4.55%,–
CCOC(=O)C1CCN(C(=O)c2ccc(S(=O)(=O)Nc3ccccc3OC)cc2)CC1,inactive,–
CCOc1ccccc1NC(=O)Nc1cc(C(=O)O)ccc1C,inconclusive: 2.38%,–
COc1ccc(NC(=O)CS(=O)(=O)c2ccccc2Cl)cc1,inactive,–
CC12CC3(C)CC(C)(C1)CC(NC(=O)N1CCCC1)(C2)C3,inconclusive: 2%,–
COC(=O)c1c(-c2cccc(C)c2)csc1NC(=O)C1CCCO1 (centres undefined),inconclusive: 0.869%,–
O=C(O)c1ccc(CSc2n[nH]c(-c3ccco3)n2)cc1,inconclusive: -18.7%,–
COCC(=O)Nc1cc(C(=O)Nc2cccc(C)c2C)ccc1Cl,–,"inconclusive: 7.31 µM [falling, partial curve, poor fit]"
COCCNC(=O)c1c[nH]c2ccc(S(=O)(=O)N3CCc4ccccc43)cc2c1=O,inconclusive: 17.8%,–
Cc1ccc(CNC(=O)Cn2nnc3ccccc3c2=O)cc1,inconclusive: -11.5%,–
O=C(Nc1cccc(-c2csc(-c3ccccc3)n2)c1)c1cccs1,–,"inconclusive: 25.9 µM [rising, single point]"
Cc1ccc(NC(=O)COC(=O)C2=COCCO2)c([N+](=O)[O-])c1,inconclusive: 3.31%,–
COc1ccc(CCNC(=O)Cn2c(=O)n(CCCC(=O)NCc3ccco3)c(=O)c3sccc32)cc1OC,inconclusive: -9.31%,–
N#Cc1cccc(NC(=O)COC(=O)c2ccccc2C(=O)c2ccc(Cl)c([N+](=O)[O-])c2)c1,inconclusive: 2.83%,–
